# Measurements taken from article PMC7819943, “Rice protein-binding microarrays: a tool to detect cis-acting elements near promoter regions in rice”.
# The chains behind the UniProt entries cited, without tags or fusion partners.
# UniProt Q0JBA9, entry or part of it: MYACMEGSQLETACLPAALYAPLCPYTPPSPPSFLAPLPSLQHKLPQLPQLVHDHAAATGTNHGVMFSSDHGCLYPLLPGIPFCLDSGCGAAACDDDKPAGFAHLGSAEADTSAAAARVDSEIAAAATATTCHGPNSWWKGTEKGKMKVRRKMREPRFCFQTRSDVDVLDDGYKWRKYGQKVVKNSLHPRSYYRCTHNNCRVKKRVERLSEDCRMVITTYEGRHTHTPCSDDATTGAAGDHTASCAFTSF
# The other results are listed elsewhere or left out.
# Target: OsWRKY34 (Oryza sativa, UniProt Q0JBA9 1-250)
# Assay: protein-binding microarray (RPBM); PBS, 2% BSA, 51.3 ng/ul salmon testes DNA, 50 uM zinc acetate, 200 nM TF, 25 C, 1 h; high values mean tight binding
# Conditions: protein: recombinant; tags: N-terminal polyhistidine and DsRed monomer fusion (pET32a); label: CyDye5-dUTP incorporated in the synthesized complementary strand; 3' TTTTT single-stranded linker to array surface; dsDNA, one strand shown
# How it was run: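 Transcription factors, each fused N-terminally to a polyhistidine tag and DsRed, were expressed in E. coli BL21-CodonPlus and purified on Ni–NTA. A custom Agilent array was made double-stranded by primer extension with Cy5-dUTP and blocked with 2% BSA. It was incubated with 200 nM protein in PBS, 2% BSA, salmon testes DNA and 50 µM zinc acetate at 25 °C for 1 h, then washed. The binding signal is per-feature fluorescence intensity (arbitrary units) read on an Axon 4000B scanner.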
row,Sequence,binding signal
1,CGCTTGTGGAGCGGTTGGGTGGGTGGTGATTCTTCTTGGCCGGAGTCACCTAGTGCAG,8290 fluorescence intensity (a.u.)
2,TACAACGTTGACCGAAAGTCGTGGCTTTTTACCGGTTTTCCGGAGTCACCTAGTGCAG,13700 fluorescence intensity (a.u.)
3,TTTTGTGTTTCTTGAGGTGTTTCTTTGTGGCCTTCTCGTCCGGAGTCACCTAGTGCAG,8500 fluorescence intensity (a.u.)
4,AATATCAATTTGTTGCAACATTAGCGGCATGTTTTAGTTTCGGAGTCACCTAGTGCAG,8370 fluorescence intensity (a.u.)
5,CACCTTGTCATTGGCCAATCCTTCGCGTACGGCCCGCGAGCGGAGTCACCTAGTGCAG,12000 fluorescence intensity (a.u.)
6,CTCCCTTGTAGCACATATCTGATGCATATTCGATCAAACGCGGAGTCACCTAGTGCAG,10700 fluorescence intensity (a.u.)
7,CAATCTTTATCCCGTCATCCACCTCATTGTTCTTACCCAACGGAGTCACCTAGTGCAG,8260 fluorescence intensity (a.u.)
8,TAATCATCTCTCGTTCACACATTTCCATCGAAAGTATCCCCGGAGTCACCTAGTGCAG,9630 fluorescence intensity (a.u.)
9,ATTAGGGATAACCGTCACTGTTTGTTGCTGTTTTTATGTTCGGAGTCACCTAGTGCAG,9960 fluorescence intensity (a.u.)
10,TCATCTCGTATCGCCGCGCTCCTCCTTTCGCTCGCCTGCTCGGAGTCACCTAGTGCAG,8690 fluorescence intensity (a.u.)
11,TTCAATTCATGTGTGCCAAGTTAACGCAATATAAACTATACGGAGTCACCTAGTGCAG,8580 fluorescence intensity (a.u.)
12,AGCACCAGTTCATCGAACACTTATCTTTTTCGACCCTTAGCGGAGTCACCTAGTGCAG,8280 fluorescence intensity (a.u.)
13,GAGGTCCACAAACAGACGCTAAACCACCTCAACCACAATTCGGAGTCACCTAGTGCAG,11400 fluorescence intensity (a.u.)
14,GCTACACATTCCAAATAACTACCTTACCCAACCCAAGTCCCGGAGTCACCTAGTGCAG,8720 fluorescence intensity (a.u.)
15,TACTCCCTCAAATATAGCAACCTTGTACCTCTGTCCAGATCGGAGTCACCTAGTGCAG,8590 fluorescence intensity (a.u.)
16,CTCTCTCCCAACAACACTGCGCCACAGACACAAATCACACCGGAGTCACCTAGTGCAG,8630 fluorescence intensity (a.u.)
17,TGATTCAACTCCGTACATTCTGAGTTCATCCTTTTAATTACGGAGTCACCTAGTGCAG,8280 fluorescence intensity (a.u.)
18,AACAGCATAATGATTCATATCTTATACGACTTTGGTTGACCGGAGTCACCTAGTGCAG,9010 fluorescence intensity (a.u.)
19,TCCGTTTTCTCACTAGGAGCTGGTGTCCTCGCGGTCCTTACGGAGTCACCTAGTGCAG,11300 fluorescence intensity (a.u.)
20,GCTGAGACTGTAACCCAACTCAATGTTTCCGTTCCGTTAGCGGAGTCACCTAGTGCAG,8080 fluorescence intensity (a.u.)
21,TCCTCCCTCACGTCGTCGCCATTACGCCTGACACGCTCCACGGAGTCACCTAGTGCAG,8790 fluorescence intensity (a.u.)

# 2 entries from above, tab-delimited:
row	Sequence	binding signal
15	TACTCCCTCAAATATAGCAACCTTGTACCTCTGTCCAGATCGGAGTCACCTAGTGCAG	8590 fluorescence intensity (a.u.)
16	CTCTCTCCCAACAACACTGCGCCACAGACACAAATCACACCGGAGTCACCTAGTGCAG	8630 fluorescence intensity (a.u.)

# Additional entries:

row,Sequence,binding signal
1,GAGAGAGGGGTTGGGTTTGGTTGGTGTTTGTGTGGAGATGCGGAGTCACCTAGTGCAG,12800 fluorescence intensity (a.u.)
2,ACTGTTCGTTTTTCCACTTAAGTTCTGCTTGGTTTTTTTTCGGAGTCACCTAGTGCAG,16600 fluorescence intensity (a.u.)
3,AATCAACTCGTGTGAAAGTTCTATAAATATTTGGGTGGGGCGGAGTCACCTAGTGCAG,9880 fluorescence intensity (a.u.)
4,TACGTACCGCGCCATCTCTCTCTCTCTCTCTGTAATCCTTCGGAGTCACCTAGTGCAG,8040 fluorescence intensity (a.u.)
5,TTCAAAATGTTTGACACCGTTGACTTTTTAACACATGATCCGGAGTCACCTAGTGCAG,32400 fluorescence intensity (a.u.)
6,TGGCGCCCCACCACACCACCTCACTGGTTCACTTCACTCACGGAGTCACCTAGTGCAG,9660 fluorescence intensity (a.u.)
7,CAATTTCCATGGTTTTCTTAGCATTCTCGTCTCTAGTATTCGGAGTCACCTAGTGCAG,9610 fluorescence intensity (a.u.)
8,TCATGCTACTATCATTTTAGCATTAACTGTTACGTTAGAACGGAGTCACCTAGTGCAG,8170 fluorescence intensity (a.u.)
9,CACGTAAACTTCCAACTTTTCTGTTACATTGTTCCAATTTCGGAGTCACCTAGTGCAG,9240 fluorescence intensity (a.u.)
10,AACCATCCACCACTCACTTTTATCTACTTTTTTTAATAACCGGAGTCACCTAGTGCAG,11000 fluorescence intensity (a.u.)
11,CACATATCATCTCTTTCTCCAGCACTACCCAGCCACACAACGGAGTCACCTAGTGCAG,10500 fluorescence intensity (a.u.)
12,GAGAGGTGGGAAGCCAAAGTGGGAGAAGCAAAAATATTCTCGGAGTCACCTAGTGCAG,8380 fluorescence intensity (a.u.)
13,CCACCGCCGCCGCCGCTCGCCCCGCGCCCGCGCCGCCGCACGGAGTCACCTAGTGCAG,9890 fluorescence intensity (a.u.)
14,AAACAAGTCTTACGGCTCACCTGCTTATCACCATTATCTTCGGAGTCACCTAGTGCAG,9430 fluorescence intensity (a.u.)
15,TAAATCCGCATTTCTATTTTCACTGCTTTGTTTGATTGTCCGGAGTCACCTAGTGCAG,9350 fluorescence intensity (a.u.)
16,GATACACTCGATCTTTTTTTTGTGTATTTTGGTTTGCTTTCGGAGTCACCTAGTGCAG,9820 fluorescence intensity (a.u.)
17,ACTATTATATTGATCAATTGATTACATAATTCACGTGTCGCGGAGTCACCTAGTGCAG,13700 fluorescence intensity (a.u.)
18,TTGTTTTTGTGTGTGTGTGTGTTTGTTGTTTATTTTCAGACGGAGTCACCTAGTGCAG,9980 fluorescence intensity (a.u.)
19,GCAGAGCTAACCACCACCATTGTCAGCATTTCTTGGTTTTCGGAGTCACCTAGTGCAG,12400 fluorescence intensity (a.u.)
20,GGGTTTAGTTTTTATAGAAACTTTTTCGGGTATTTTTTTTCGGAGTCACCTAGTGCAG,11300 fluorescence intensity (a.u.)
21,TCCATGACTATGCAAAACCATCTATCTCTCTTTAAACATGCGGAGTCACCTAGTGCAG,8690 fluorescence intensity (a.u.)
